Experimental findings from publication PMC10901781 are described below.

Sequences of proteins named here, by UniProt entry; tags and fusion partners are left off. A change or cut given only in a name is not applied to a line headed by its entry.
UniProt Q01196: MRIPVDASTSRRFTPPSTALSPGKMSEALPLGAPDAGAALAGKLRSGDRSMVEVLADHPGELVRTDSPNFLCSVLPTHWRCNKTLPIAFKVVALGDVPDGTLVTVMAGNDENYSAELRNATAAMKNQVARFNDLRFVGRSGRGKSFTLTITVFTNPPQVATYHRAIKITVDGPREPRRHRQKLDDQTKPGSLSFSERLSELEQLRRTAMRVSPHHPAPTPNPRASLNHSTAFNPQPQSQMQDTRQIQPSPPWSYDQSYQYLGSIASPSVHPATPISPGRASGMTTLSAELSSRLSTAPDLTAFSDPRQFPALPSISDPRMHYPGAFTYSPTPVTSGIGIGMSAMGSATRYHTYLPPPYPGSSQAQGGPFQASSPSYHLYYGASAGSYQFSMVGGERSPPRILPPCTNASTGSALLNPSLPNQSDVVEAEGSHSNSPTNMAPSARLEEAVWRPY

The test has as its target RUNX1 with Runt domain mutation (primary AML samples) (human (endogenous in primary AML cells)) (UniProt Q01196). Description: co-IP; IP and western blot of primary AML samples with wild-type RUNX1 or with a Runt domain mutation.

These are yes or no findings as the source states them, for the method shown. Binding seen in cells or lysates may run through a third protein. Binding can be weak; no strength is given.

B1: PHF6 (primary AML samples) (protein, UniProt Q8IWS0 1-365)
chain: MSSSVEQKKGPTRQRKCGFCKSNRDKECGQLLISENQKVAAHHKCMLFSSALVSSHSDNESLGGFSIEDVQKEIKRGTKLMCSLCHCPGATIGCDVKTCHRTYHYHCALHDKAQIREKPSQGIYMVYCRKHKKTAHNSEADLEESFNEHELEPSSPKSKKKSRKGRPRKTNFKGLSEDTRSTSSHGTDEMESSSYRDRSPHRSSPSDTRPKCGFCHVGEEENEARGKLHIFNAKKAAAHYKCMLFSSGTVQLTTTSRAEFGDFDIKTVLQEIKRGKRMKCTLCSQPGATIGCEIKACVKTYHYHCGVQDKAKYIENMSRGIYKLYCKNHSGNDERDEEDEERESKSRGKVEIDQQQLTQQQLNGN
With B1, the binding result is on record as “binds”.
